# In patent US20260217843A1:
# Sequences of proteins named here, by UniProt entry; tags and fusion partners are left off. A change or cut given only in a name is not applied to a line headed by its entry.
# UniProt P23510: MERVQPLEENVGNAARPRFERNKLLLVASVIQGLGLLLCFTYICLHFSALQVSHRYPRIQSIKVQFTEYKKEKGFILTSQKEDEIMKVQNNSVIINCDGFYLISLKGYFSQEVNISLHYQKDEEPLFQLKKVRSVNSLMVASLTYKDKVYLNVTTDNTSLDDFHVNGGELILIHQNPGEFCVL
# These are yes or no findings as the source states them, for the method shown. Some results given as binding are weak or reduced against the parent protein; the word gives no strength.
# What was measured:
# [1] = molecular target: biotinylated hOX40L (human) (UniProt P23510); test: competition ELISA: biotinylated hOX40L preincubated with titrated antibody, added to plates coated with hOX40-Fc (the blocked partner), bound hOX40L detected with Extravidin-HRP
# [2] = molecular target: hOX40L on hOX40L-expressing CHO cells (human) (UniProt P23510); test: flow cytometry on hOX40L-expressing CHO cells, titrated antibody detected with fluorophore-labeled goat anti-human IgG, gMFI
binder,measurement,setting,value
"positive control based on the sequences of the anti-hOX40L antibody amlitelimab (antibody, IgG4, V domains shown) VH: EVQLVESGGGLVQPGGSLRLSCAASGFTFSNYAMNWVRQAPGKGLEWVSTISGSGGATRYADSVKGRFTISRDNSRNTVYLQMNSLRVEDTAVFYCTKDRLIMATVRGPYYYGMDVWGQGTTVTVSS VL: DIQMTQSPSSLSASVGDRVTITCRASQSISSYLNWYQQKPGKAPNLLIYAASSLQSGVPSRFSGSGSETDFTLTISSLQPEDFATYYCQQSHSVSFTFGPGTKVDIK",binding,[1],binds
same,binding,[2],binds
